Experiment in all cases: pull-down; matrix-bound GST fusion protein incubated with 35S-labelled in vitro translated protein, with or without E2; bound proteins on 10% SDS-PAGE, visualised with a BAS 1500; only the target purified
For test [1], the target named is GST-ERα (fusion protein between glutathione S-transferase and ERα) (human) (UniProt P03372).
Test [2] has as its target GST-BETA2 (human) (UniProt Q13562).
The target is the same in test [3]. This is another data set of the same source.

Chains of the proteins cited; added tags and fusions are not shown.
UniProt P03372: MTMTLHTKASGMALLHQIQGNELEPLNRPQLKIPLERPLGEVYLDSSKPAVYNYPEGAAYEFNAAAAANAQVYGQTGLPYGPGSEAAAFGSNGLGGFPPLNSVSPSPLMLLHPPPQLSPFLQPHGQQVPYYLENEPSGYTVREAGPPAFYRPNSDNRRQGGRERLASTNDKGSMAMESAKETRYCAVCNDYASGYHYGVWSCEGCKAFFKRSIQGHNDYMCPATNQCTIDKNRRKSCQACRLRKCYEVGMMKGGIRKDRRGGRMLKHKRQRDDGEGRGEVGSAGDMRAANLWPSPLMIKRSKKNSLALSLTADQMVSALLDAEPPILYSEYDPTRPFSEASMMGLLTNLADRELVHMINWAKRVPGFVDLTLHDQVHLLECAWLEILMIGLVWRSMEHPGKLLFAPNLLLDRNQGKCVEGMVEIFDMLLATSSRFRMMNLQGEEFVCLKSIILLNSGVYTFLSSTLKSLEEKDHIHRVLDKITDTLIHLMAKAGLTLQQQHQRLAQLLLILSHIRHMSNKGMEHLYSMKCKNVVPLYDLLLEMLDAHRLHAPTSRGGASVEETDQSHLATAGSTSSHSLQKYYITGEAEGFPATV
UniProt Q13562: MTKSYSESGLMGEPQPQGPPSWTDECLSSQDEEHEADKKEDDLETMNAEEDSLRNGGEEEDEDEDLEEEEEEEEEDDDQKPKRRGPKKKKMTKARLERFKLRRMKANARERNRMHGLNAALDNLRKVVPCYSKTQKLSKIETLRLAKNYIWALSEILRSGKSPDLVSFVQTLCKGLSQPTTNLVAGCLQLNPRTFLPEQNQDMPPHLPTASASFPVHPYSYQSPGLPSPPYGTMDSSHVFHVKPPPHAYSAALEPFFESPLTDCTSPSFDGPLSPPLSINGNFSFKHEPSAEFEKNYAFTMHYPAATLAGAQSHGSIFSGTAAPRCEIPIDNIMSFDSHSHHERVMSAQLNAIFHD

Read-outs that look alike come from different tables or passages of the source. Results are given in words; binding and its absence hold for the method and conditions named. In cells and extracts the contact can be indirect. Some results given as binding are weak or reduced against the parent protein; the word gives no strength.

As for “35S-methionine-labeled, in vitro-translated BETA2 (from UniProt Q13562 1-356)”, the binding result in test [1] was “binds”.
As to “35S-methionine-labeled ERα (from UniProt P03372 1-595) (receptor)”, the binding entry in the test with GST-BETA2 (human) [2] was “binds”.

B1: 35S-labeled E47 (protein, UniProt P15923-2 1-651)
chain: MNQPQRMAPVGTDKELSDLLDFSMMFPLPVTNGKGRPASLAGAQFGGSGLEDRPSSGSWGSGDQSSSSFDPSRTFSEGTHFTESHSSLSSSTFLGPGLGGKSGERGAYASFGRDAGVGGLTQAGFLSGELALNSPGPLSPSGMKGTSQYYPSYSGSSRRRAADGSLDTQPKKVRKVPPGLPSSVYPPSSGEDYGRDATAYPSAKTPSSTYPAPFYVADGSLHPSAELWSPPGQAGFGPMLGGGSSPLPLPPGSGPVGSSGSSSTFGGLHQHERMGYQLHGAEVNGGLPSASSFSSAPGATYGGVSSHTPPVSGADSLLGSRGTTAGSSGDALGKALASIYSPDHSSNNFSSSPSTPVGSPQGLAGTSQWPRAGAPGALSPSYDGGLHGLQSKIEDHLDEAIHVLRSHAVGTAGDMHTLLPGHGALASGFTGPMSLGGRHAGLVGGSHPEDGLAGSTSLMHNHAALPSQPGTLPDLSRPPDSYSGLGRAGATAAASEIKREEKEDEENTSAADHSEEEKKELKAPRARTSSTDEVLSLEEKDLRDRERRMANNARERVRVRDINEAFRELGRMCQMHLKSDKAQTKLLILQQAVQVILGLEQQVRERNLNPKAACLKRREEEKVSGVVGDPQMVLSAPHPGLSEAHNPAGHM
modifications: 35S labelled
In the case of B1, the binding result with GST-BETA2 (human) [3] is “binds”.

Source of the values: publication PMC6443913.
